Values of other authors in patent US20260069604A1, “NOVEL EQUILIBRATIVE NUCLEOSIDE TRANSPORTER INHIBITORS AND METHODS OF MAKING AND USING SAME” (Duke University, priority 2022, published 2026).
For at least one compound, name, drawing or mass did not settle the structure.

What was measured:
Conditions in all cases: in words; cited from earlier work
hENT2 = target: T1, hENT2 (Homo sapiens, UniProt Q14542)
T1 construct: expressed in transfected cells; host or cells: oocytes (X. laevis)
T1 sequence (Q14542 1-456): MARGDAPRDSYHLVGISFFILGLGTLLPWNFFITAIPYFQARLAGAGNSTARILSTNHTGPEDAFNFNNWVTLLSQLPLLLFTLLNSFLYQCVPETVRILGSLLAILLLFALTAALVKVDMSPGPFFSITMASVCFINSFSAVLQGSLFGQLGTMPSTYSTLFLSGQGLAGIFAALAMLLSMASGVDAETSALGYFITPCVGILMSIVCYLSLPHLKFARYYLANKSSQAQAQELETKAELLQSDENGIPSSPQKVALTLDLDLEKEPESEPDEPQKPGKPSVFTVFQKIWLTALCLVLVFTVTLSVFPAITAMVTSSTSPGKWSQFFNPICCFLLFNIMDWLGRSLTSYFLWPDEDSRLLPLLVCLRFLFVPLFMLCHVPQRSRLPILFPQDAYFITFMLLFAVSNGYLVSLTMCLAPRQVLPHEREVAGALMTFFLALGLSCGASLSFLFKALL

hENT4 = target: T2, hENT4 (Homo sapiens, UniProt Q7RTT9)
T2 sequence (Q7RTT9 1-530): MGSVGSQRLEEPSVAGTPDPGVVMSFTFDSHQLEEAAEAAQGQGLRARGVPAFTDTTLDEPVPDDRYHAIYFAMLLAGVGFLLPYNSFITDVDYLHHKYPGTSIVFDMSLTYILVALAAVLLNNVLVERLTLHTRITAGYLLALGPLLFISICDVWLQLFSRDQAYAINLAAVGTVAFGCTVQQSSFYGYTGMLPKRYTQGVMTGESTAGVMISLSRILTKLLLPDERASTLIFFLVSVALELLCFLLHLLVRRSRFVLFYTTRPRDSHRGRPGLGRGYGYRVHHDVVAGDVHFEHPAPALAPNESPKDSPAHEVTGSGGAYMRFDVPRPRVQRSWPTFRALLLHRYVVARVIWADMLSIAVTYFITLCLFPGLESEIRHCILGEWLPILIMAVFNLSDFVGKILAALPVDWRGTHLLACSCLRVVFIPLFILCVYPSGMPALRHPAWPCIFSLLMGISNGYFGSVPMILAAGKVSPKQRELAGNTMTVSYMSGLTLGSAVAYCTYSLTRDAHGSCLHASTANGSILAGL

Human ENT3 = target: T3, Human ENT3 (Homo sapiens, UniProt Q9BZD2)
T3 sequence (Q9BZD2 1-475): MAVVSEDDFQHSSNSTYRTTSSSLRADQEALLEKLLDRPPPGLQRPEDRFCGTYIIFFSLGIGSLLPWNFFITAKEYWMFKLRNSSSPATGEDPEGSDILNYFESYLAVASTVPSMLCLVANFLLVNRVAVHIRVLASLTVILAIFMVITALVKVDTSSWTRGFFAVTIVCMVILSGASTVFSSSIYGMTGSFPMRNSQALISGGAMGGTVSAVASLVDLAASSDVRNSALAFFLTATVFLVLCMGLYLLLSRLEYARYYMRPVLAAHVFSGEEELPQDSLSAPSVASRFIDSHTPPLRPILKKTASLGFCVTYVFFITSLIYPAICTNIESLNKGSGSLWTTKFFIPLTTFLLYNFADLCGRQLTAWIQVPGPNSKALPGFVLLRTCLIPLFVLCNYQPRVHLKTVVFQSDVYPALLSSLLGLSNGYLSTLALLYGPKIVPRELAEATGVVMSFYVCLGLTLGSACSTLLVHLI

Structure (SMILES): O=[N+]([O-])c1ccc(CSc2ncnc3c2ncn3C2OC(CO)C(O)C2O)cc1 (stereo not drawn) [NBMPR, nitrobenzylthioinosine]
- sensitivity to NBMPR (hENT2): micromolar or weaker inhibition
- sensitivity to NBMPR (hENT4): completely NBMPR insensitive
- sensitivity to NBMPR (Human ENT3): virtually no sensitivity
